Experimental data from the supplement of paper PMC4683952.
Counter-ions that a name gives are not always drawn. Among all 1,200 compounds or so, about 50 (4%) showed activity. Rule as the data show it: all actives reach 1.3 or more but so do some inactives. The list shows a part of the results.

system: Lgr5 (MarsCy1-Lgr5-EGFP, U2OS); assay: cell-surface Lgr5 expression (SCi1 fluorescence, background-subtracted) relative to WT DMSO (fold of DMSO control); higher = more Lgr5 at the plasma membrane, active = hit call of the paper; conditions: U2OS MarsCy1-Lgr5-EGFP stable; treatment time: overnight; 16 µM; library: Johns Hopkins Clinical Compound Library

cell-surface Lgr5 expression, inactive:
O=C(CCCN1CCC(O)(c2ccc(Br)cc2)CC1)c1ccc(F)cc1 [Bromperidol] 1.23
CO[C@@]1(NC(=O)Cc2cccs2)C(=O)N2C(C(=O)O)=C(COC(N)=O)CS[C@@H]21 [Cefoxitin] 1.07
CC(=O)c1ccc2c(c1)N(CCCN1CCC(CCO)CC1)c1ccccc1S2 [Piperacetazine] 1.01
OC[C@@H](O)[C@H](O)[C@@H](O)CO [Xylitol] 1.15
ClC(Cl)(c1ccccc1)c1ccccc1 [Dichlorodiphenyl-methane] 1.03
COc1cc2c(cc1OC)C(=O)C(CC1CCN(Cc3ccccc3)CC1)C2 (stereo not drawn) [Donepezil hydrochloride] 0.531
CCCCC(CC)CN1CN(CC(CC)CCCC)CC(C)(N)C1 (stereo not drawn) [Hexetidine] 1.11
O=S(=O)([O-])[O-].O=S(=O)([O-])[O-].[Al+3].[K+] [Aluminum potassium sulfate] 0.629
O.O.O.O.O.O.O.O=S(=O)([O-])[O-].[Mg+2] [Magnesium sulfate] 1.04
CN1C(C(=O)Nc2ccccn2)=C(O)c2sccc2S1(=O)=O [Tenoxicam] 0.969
C[C@]12C=CC(=O)C=C1CC[C@@H]1[C@@H]2[C@@H](O)C[C@@]2(C)[C@H]1CC[C@]2(O)C(=O)COP(=O)(O)O [Prednisolone sodium phosphate] 1.25
N=C(N)N [Guanidine hydrochloride] 0.767
C=C[C@H]1CN2CC[C@H]1C[C@@H]2[C@@H](O)c1ccnc2ccc(OC)cc12 [Quinidine sulfate dihydrate] 1.24
CC(=O)O[C@]1(C(C)=O)CC[C@H]2[C@@H]3CCC4=CC(=O)CC[C@]4(C)[C@H]3CC[C@@]21C [Hydroxyprogesterone acetate (17alpha-Acetoxyprogesterone)] 1.21
Cn1c(=O)c2[nH]cnc2n(C)c1=O [Aminophylline] 0.906
Cn1c(=O)c2[nH]cnc2n(C)c1=O [Oxtriphylline] 0.861
C#C[C@]1(O)CC[C@H]2[C@@H]3CCc4cc(OC5CCCC5)ccc4[C@H]3CC[C@@]21C [Quinestrol (17α-Ethynylestradiol 3-cyclopentyl ether)] 1.09
Cc1ccnc2c1NC(=O)c1cccnc1N2C1CC1 [Nevirapine] 0.832
Cc1[nH]c(=O)c(C#N)cc1-c1ccncc1 [Milrinone] 1.08
C[Se]CCC(N)C(=O)O [Seleno-D, L-methionine] 1.08
O=C(Nc1ccccc1)c1ccccc1O [Salicylanilide] 0.974
CC(=O)N[C@@H](CCC(N)=O)C(=O)O [Aceglutamide (N-acetyl-L-glutamine)] 1.2
CC(=O)NO [Acetohydroxamic acid] 0.848
CN1CCCN=C1COC(=O)C(O)(c1ccccc1)C1CCCCC1 (stereo not drawn) [Oxyphencyclimine] 1.15
Cc1ccc(/C(=C\CN2CCCC2)c2cccc(/C=C/C(=O)O)n2)cc1 [Acrivastine] 1.15
Cn1c(=O)c2c(ncn2CC(=O)O)n(C)c1=O [Theophylline-7-acetic acid] 1.14
CSc1ccc(C(=O)c2[nH]c(=O)[nH]c2C)cc1 [Enoximone] 1.12
Cc1cc(C(=O)NNCc2ccccc2)no1 [Isocarboxazid] 0.572
COc1cc(OC)c(C(=O)CCCN2CCCC2)c(OC)c1 [Buflomedil] 1.08
N#CC(c1ccc(Cl)cc1)c1c(Cl)cc(-n2ncc(=O)[nH]c2=O)cc1Cl (stereo not drawn) [Diclazuril] 0.92
CCN1C(=O)NC(c2ccccc2)C1=O (stereo not drawn) [Ethotoin] 0.854
CN1CCC(=C2c3ccccc3CC(=O)c3sccc32)CC1 [Ketotifen] 1.07
COC(=O)c1ccccc1O [Methyl salicylate] 0.981
COc1ccc2c(c1)N(C[C@H](C)CN(C)C)c1ccccc1S2 [Methotrimeprazine] 1.17
OC(CCCN1CCC(O)(c2ccc(Cl)cc2)CC1)c1ccc(F)cc1 (stereo not drawn) [Haloperidol metabolite II] 1.18
Cn1ccnc1S [Methimazole] 0.738
Oc1ccc(Cl)c2cccnc12 [Cloxyquin (5-chloro-8-hydroxy-quinoline)] 0.745
CC(C)(C(=O)c1cccnc1)c1cccnc1 [Metyrapone (2-methyl-1,2-di-3-pyridyl 1-propanone)] 0.848
CCCC(=O)O[C@]1(C(=O)CCl)[C@H](C)C[C@@H]2[C@@H]3CCC4=CC(=O)C=C[C@]4(C)[C@]3(F)C(=O)C[C@@]21C [Clobetasone butyrate] 1
CC(=O)N(O)CCCCCNC(=O)CCC(=O)N(O)CCCCCNC(=O)CCC(=O)N(O)CCCCCN [Deferoxamine mesylate] 0.865
CC(C)/N=c1\cc2n(-c3ccc(Cl)cc3)c3ccccc3nc-2cc1Nc1ccc(Cl)cc1 [Clofazimine] 1.55
CCN[C@H]1C[C@H](C)S(=O)(=O)c2sc(S(N)(=O)=O)cc21 [Dorzolamide] 0.632
CO[C@@]1(NC(=O)CSCC#N)C(=O)N2C(C(=O)O)=C(CSc3nnnn3C)CS[C@@H]21 [Cefmetazole] 0.929
COc1ccc2[nH]c(I)c(CCNC(C)=O)c2c1 [2-Iodomelatonin] 0.912
C[C@@H]1[C@H](O)[C@@H](C)/C=C/C=C/C=C/C=C/C=C/C=C/C=C/[C@H](O[C@@H]2O[C@H](C)[C@@H](O)[C@H](N)[C@@H]2O)C[C@@H]2O[C@](O)(C[C@@H](O)C[C@@H](O)[C@H](O)CC[C@@H](O)C[C@@H](O)CC(=O)O[C@H]1C)C[C@H](O)[C@H]2C(=O)O [Amphotericin B] 0.802
CCOC(=O)C(C)(C)Oc1ccc(Cl)cc1 [Clofibrate (2-2-methyl-propionic acid ethyl ester)] 0.922
CCC(NC(C)C)C(O)c1ccc(O)c(O)c1 (stereo not drawn) [Isoetharine mesylate] 1.19
CCC(Cc1c(I)cc(I)c(N)c1I)C(=O)O (stereo not drawn) [Iopanoic acid] 1.18
[Ca+2].[OH-].[OH-] [Calcium hydroxide] 1.1
CC(=O)[O-].CC(=O)[O-].CC(=O)[O-].[Sm+3] [Samarium(III) acetate hydrate] 1.17
CC1CCc2c(N3CCC(O)CC3)c(F)cc3c(=O)c(C(=O)O)cn1c23 (stereo not drawn) [Nadifloxacin] 0.884
[Cl-].[Cl-].[Zn+2] [Zinc chloride] 0.72
Clc1ccc(COC(Cn2ccnc2)c2ccc(Cl)cc2Cl)c(Cl)c1 (stereo not drawn) [Miconazole] 0.826
NC12CC3CC(CC(C3)C1)C2 [Amantadine] 1.16
NC12CC3CC(CC(C3)C1)C2 [Amantadine hydrochloride (1-Adamantanamine hydrochloride)] 0.924
O.O.O.O.O.O.O.O=S(=O)([O-])[O-].O=S(=O)([O-])[O-].O=S(=O)([O-])[O-].[Fe+3].[Fe+3] [Ferric sulfate heptahydrate] 0.861
COC(=O)c1ccc(O)c2nc3c(C=O)c(O)cc(O)c3nc12 [Lomofungin] 0.884
COc1ccc(C(=O)NCc2ccc(OCCN(C)C)cc2)cc1OC [Itopride HCl] 0.884
N.O=C(O)CC(O)(CC(=O)O)C(=O)O.[Fe+3] [Ferric ammonium citrate] 1.06
CC[C@@H]1/C=C(\C)C[C@H](C)C[C@H](OC)[C@H]2O[C@@](O)(C(=O)C(=O)N3CCCC[C@H]3C(=O)O[C@H](/C(C)=C/[C@@H]3CC[C@H](Cl)[C@H](OC)C3)[C@H](C)[C@@H](O)CC1=O)[C@H](C)C[C@@H]2OC [Pimecrolimus] 0.952
CCCCCCCCCCCCCCc1ccc(S(=O)(=O)O)cc1.OCl [Oxychlorosene] 0.635
Brc1c(NC2=NCCN2)ccc2nccnc12 [Brimonidine (UK 14,304)] 0.449
CN(C)CCOC(=O)COc1ccc(Cl)cc1 [Meclofenoxate (Centrophenoxine hydrochloride)] 1.04
CC(=O)[O-].CC(=O)[O-].[Mg+2] [Magnesium acetate] 0.917
Cc1ccc2c(Cl)cc(Cl)c(O)c2n1 [Chlorquinaldol (5,7-Dichloro-2-methyl-8-quinolinol)] 0.931

Retrieved one by one from above, three records:
cell-surface Lgr5 expression, inactive:
COc1ccc2c(c1)N(C[C@H](C)CN(C)C)c1ccccc1S2 [Methotrimeprazine] 1.17
Cn1ccnc1S [Methimazole] 0.738
Clc1ccc(COC(Cn2ccnc2)c2ccc(Cl)cc2Cl)c(Cl)c1 (stereo not drawn) [Miconazole] 0.826

Next part:

cell-surface Lgr5 expression, active:
C[C@]12C=CC(=O)C=C1CC[C@@H]1[C@@H]2[C@@H](O)C[C@@]2(C)[C@H]1CC[C@]2(O)C(=O)COP(=O)(O)O [Prednisolone 21-phosphate, disodium salt] 1.41
Nc1c(Br)cc(Br)cc1CN[C@H]1CC[C@H](O)CC1 [Ambroxol hydrochloride] 1.54
Nc1ncn([C@H]2C[C@H](O)[C@@H](CO)O2)c(=O)n1 [Decitabine (5-aza-2-deoxycytidine)] 1.47
